According to article PMC3662644, “Genome wide analysis of the complete GlnR nitrogen-response regulon in Mycobacterium smegmatis”:
For at least one entry, the source does not settle the construct or the ends of the probe. Weaker means in comparison with the reference protein, sequence or condition of that experiment. Protein sequences can lack the tags named with them. At least one verdict rests on a figure or table, not on a statement of the authors.

Each sequence was assayed against T1, His-GlnR (UniProt A0R4C4) (assay: EMSA). Conditions: EMSA: 0.4 ng DIG-labelled DNA, 0-0.9 ug His-GlnR, 0.5 ug poly d(A-T), 25 mM Hepes pH 7.9, 150 mM NaCl, 2.5 mM MgCl2, 37 C, 15 min; recombinant protein; protein details: N-terminal His6 (pET28b); label: DIG 3'-end.
T1 sequence (looked up, limits assumed): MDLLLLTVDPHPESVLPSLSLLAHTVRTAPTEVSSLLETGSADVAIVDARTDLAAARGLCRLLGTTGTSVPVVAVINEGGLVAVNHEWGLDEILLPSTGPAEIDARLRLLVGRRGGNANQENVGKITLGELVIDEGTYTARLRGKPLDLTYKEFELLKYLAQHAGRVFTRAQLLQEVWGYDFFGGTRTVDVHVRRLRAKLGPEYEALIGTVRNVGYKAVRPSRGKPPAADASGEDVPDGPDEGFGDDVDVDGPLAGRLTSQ
“TCATGTCGAGGTTAATTTGTTCGTCACACACAGACATT (double strand) [Peak 24 WT]”: binds.
“GCAATCGCGGGGTAACGCCGTGGAAACAGAGCCTGCCT (double strand) [Peak 2 WT]”: binds.
“GCAATCGCGGGGTAACGTGGAAACAGAGCCTGCCT (double strand) [Peak 2 short (ACn6AC)]”: binds more weakly.
“GCAATCGCGGGGTAACGCCGTCCCGGAAACAGAGCCTGCCT (double strand) [Peak 2 long (ACn12AC)]”: binds more weakly.
